Taken from: PubChem BioAssay AID504791 (Drosophila RNAi Screening Center, 2011)
In all, the deposit lists about 23,000 reagents; this is a random part of those with a known target gene and a result. Over the whole deposit, 199 (0.86%) were called active. 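Plate-scaled ratios behind the calls are not deposited; printed light signals are raw; many rows marked increased or decreased are still called inactive.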 Unmarked entries are inactive. Reagent sequences are not shown. The record does not give: the direction of the score.

- Aim: 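Factors in Argonaute-based small RNA production and activity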 (primary screen)
- Cell system: Drosophila S2-derived reporter cells
- Reagent: long dsRNA against Drosophila genes, about 150-250 ng dsRNA per well (siRNA assay); about 80-120 ng (miRNA assay)
- Timing: about 5 days (siRNA assay); about 4 days (miRNA assay)
- Conditions: copper sulfate induction of reporters: 25 µM (siRNA assay); 200 mM stated (miRNA assay), 1-2 days before reading
- Measured: 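Dual luciferase assay: Renilla to firefly signal ratio in each well, scaled to the mean ratio of its plate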
- Call rule: 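a well was a first-pass pick when its plate-scaled ratio rose above 1.5 (siRNA assay) or 1.6 (miRNA assay), or dropped below 0.6; a gene counted only if two separate dsRNAs agreed on retest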

Gene,amplicon,"stable assay Renilla, run 1 (luminescence)","stable assay firefly, run 1 (luminescence)"
MFS16 (Major Facilitator Superfamily Transporter 16),DRSC04051,6714,3.75e5
Lcp65Ac,DRSC11210,6983,5.89e5
Smg6,DRSC16029,10028,3.41e5
PIG-L (Phosphatidylinositol glycan anchor biosynthesis class L),DRSC15577,7298,3.95e5
CG14695,DRSC14918,7120,3.66e5
CG42365,DRSC04266,7362,5.16e5
tous (testes of unusual size),DRSC04464,18712,7.47e5
CG32425,DRSC11739,6003,2.22e5
CG32425,DRSC11764,8555,3.07e5
CG11920,DRSC14439,10157,4.30e5
Pcl (Polycomblike),DRSC07503,8388,3.57e5
Hdc (Histidine decarboxylase),DRSC07439,8462,4.17e5
cnc (cap-n-collar),DRSC14676,7191,3.12e5
cnc (cap-n-collar),DRSC15289,10376,3.07e5
cnc (cap-n-collar),DRSC15600,8011,3.36e5
cnc (cap-n-collar),DRSC15601,8191,2.82e5
CR14499 (retired record),DRSC06470,6130,2.89e5
ACXA (Adenylyl cyclase X A),DRSC00844,6982,3.14e5
Vhl (von Hippel-Lindau),DRSC07716,5655,3.17e5
PolI (DNA polymerase iota),DRSC16267,8274,4.27e5
CG6462,DRSC10641,6480,4.75e5
Grl36b (Gustatory receptor-like 36b),DRSC01627,5244,3.90e5
CG33287,DRSC22929,5271,4.01e5

Quoted from the listing for reference:
Gene,amplicon,"stable assay Renilla, run 1 (luminescence)","stable assay firefly, run 1 (luminescence)"
Lcp65Ac,DRSC11210,6983,5.89e5
Smg6,DRSC16029,10028,3.41e5
PIG-L (Phosphatidylinositol glycan anchor biosynthesis class L),DRSC15577,7298,3.95e5
CG14695,DRSC14918,7120,3.66e5
CG42365,DRSC04266,7362,5.16e5

Continued:
Gene,amplicon,"stable assay Renilla, run 1 (luminescence)","stable assay firefly, run 1 (luminescence)"
Gcat (Glycine C-acetyltransferase),DRSC09719,7454,6.53e5
Fnta (Farnesyl transferase alpha subunit),DRSC00557,12386,1.81e5
Etf-QO (Electron transfer flavoprotein-ubiquinone oxidoreductase),DRSC06111,7032,4.77e5
CG13538,DRSC04180,6242,3.51e5
Nepl16 (Neprilysin-like 16),DRSC14650,6660,3.70e5
wech,DRSC06606,95123,1.87e6
CG12547,DRSC07759,5563,2.94e5
ND6 (retired record),DRSC21271,4679,4.45e5
dcma (decima),DRSC00246,5359,3.66e5
dcma (decima),DRSC00338,8569,5.14e5
CG33298,DRSC02210,8108,3.79e5
CG33298,DRSC02672,15926,9.96e5
